# Measurements from US7858322B2, “Method of determining inhibition of binding to TRPM7 protein” (NoNo, Inc., priority 2003, dated 2010).
# Part of at least one peptide drawing is inferred or uncertain, most often the ends. Residues, ends and D or L forms follow the SMILES beside them. *: point of attachment. Biotin = O=C1N[C@H]2[C@H](CS[C@H]2CCCCC(=O)*)N1
# Key:
# Assay in all cases: G3 assay, binding of biotinylated peptide to GST-PDZ fusion
# KIAA1284 d1 = biological target: T1, KIAA1284 d1 (Homo sapiens, UniProt Q9ULD6); conditions: G3 titration, KIAA1284 d1 (191.2)
# T1 construct: made in house; host or cells: E. coli (DH5α, BL21 or JM109)
# T1 sequence (Q9ULD6 159-271): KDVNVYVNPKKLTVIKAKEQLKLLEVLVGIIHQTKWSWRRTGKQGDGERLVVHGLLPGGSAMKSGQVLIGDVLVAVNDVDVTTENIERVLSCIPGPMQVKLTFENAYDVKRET
# LIM Mystique d1 = biological target: T2, LIM Mystique d1 (Homo sapiens, UniProt Q96JY6)
# T2 construct: made in house; host or cells: E. coli (DH5α, BL21 or JM109)
# T2 sequence (Q96JY6 1-91): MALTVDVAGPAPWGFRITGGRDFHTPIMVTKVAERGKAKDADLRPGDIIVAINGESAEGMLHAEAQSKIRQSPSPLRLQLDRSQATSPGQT
# Syntrophin 1 alpha d1 = biological target: T3, Syntrophin 1 alpha d1 (Homo sapiens, UniProt Q13424); conditions: Syntrophin 1 alpha domain 1; 0.1 μM peptide; OD at least 2-fold over GST-only OD and/or ED50 of less than 0.17 μM
# T3 construct: made in house; host or cells: E. coli (DH5α, BL21 or JM109)
# T3 sequence (Q13424 84-177): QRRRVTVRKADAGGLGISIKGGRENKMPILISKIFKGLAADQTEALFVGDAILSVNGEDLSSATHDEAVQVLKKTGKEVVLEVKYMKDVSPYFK
# MAST2 d1 = biological target: T4, MAST2 d1 (Homo sapiens, UniProt Q6P0Q8)
# T4 construct: made in house; host or cells: E. coli (DH5α, BL21 or JM109)
# T4 sequence (Q6P0Q8 with tags, fused parts or gaps): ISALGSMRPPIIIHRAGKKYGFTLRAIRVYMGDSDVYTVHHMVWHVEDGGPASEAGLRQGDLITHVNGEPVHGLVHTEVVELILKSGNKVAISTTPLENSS
# Mint1 d2 = biological target: T5, Mint1 d2 (Homo sapiens, UniProt Q02410); conditions: G3 titration, Mint1 d2 (147.2)
# T5 construct: made in house; host or cells: E. coli (DH5α, BL21 or JM109)
# T5 sequence (Q02410 with tags, fused parts or gaps): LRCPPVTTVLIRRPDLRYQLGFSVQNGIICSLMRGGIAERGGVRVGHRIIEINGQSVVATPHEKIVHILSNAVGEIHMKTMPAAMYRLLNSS
# Mint1 d1 = biological target: T6, Mint1 d1 (Homo sapiens, UniProt Q02410); conditions: G3 titration, Mint1 d1 (146.5)
# T6 construct: made in house; host or cells: E. coli (DH5α, BL21 or JM109)
# T6 sequence (Q02410 with tags, fused parts or gaps): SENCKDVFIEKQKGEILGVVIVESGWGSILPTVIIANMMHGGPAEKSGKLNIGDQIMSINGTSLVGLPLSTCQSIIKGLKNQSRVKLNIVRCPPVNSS
compound,measurement,setting,value
CSCC[C@H](NC(=O)[C@H](CC(C)C)NC(=O)[C@H](CCCNC(=N)N)NC(=O)[C@@H](NC(=O)[C@H](CO)NC(=O)[C@H](CC(N)=O)NC(=O)[C@@H](NC(=O)[C@H](CO)NC(=O)[C@H](CCCNC(=N)N)NC(=O)[C@H](CCCNC(=N)N)NC(=O)[C@H](CCCNC(=N)N)NC(=O)[C@H](CCC(N)=O)NC(=O)[C@H](CCCNC(=N)N)NC(=O)[C@H](CCCNC(=N)N)NC(=O)[C@H](CCCCN)NC(=O)[C@H](CCCCN)NC(=O)[C@H](CCCNC(=N)N)NC(=O)CNC(=O)[C@H](Cc1ccc(O)cc1)NC(=O)CCCC[C@@H]1SC[C@@H]2NC(=O)N[C@@H]21)[C@@H](C)O)C(C)C)C(=O)N[C@@H](CC(C)C)C(=O)O [Tat-TRPM7 peptide] (Biotin-YGRKKRRQRRRSTNSVRLML-OH),ODmax (450 nm),KIAA1284 d1,0.63
same,ODmax (450 nm),"LIM Mystique d1; G3 titration, LIM Mystique d1 (232.1)",2.10
same,PDZ domains demonstrated to interact with Tat-TRPM7 peptide,"LIM Mystique d1; LIM mystique domain 1, 0.1 μM peptide, OD at least 2-fold over GST-only OD and/or ED50 of less than 0.17 μM",LIM mystique
same,PDZ domains demonstrated to interact with Tat-TRPM7 peptide,Syntrophin 1 alpha d1,Syntrophin 1 alpha
same,ODmax (450 nm),"MAST2 d1; G3 titration, MAST2 d1 (174.6)",2.10
same,PDZ domains demonstrated to interact with Tat-TRPM7 peptide,"MAST2 d1; MAST2 domain 1, 0.1 μM peptide, OD at least 2-fold over GST-only OD and/or ED50 of less than 0.17 μM",MAST2
same,ODmax (450 nm),Mint1 d2,0.76
same,ODmax (450 nm),Mint1 d1,0.33
